Data source: PubChem BioAssay AID1159578 (Peter MacCallum Cancer Centre, 2015)
Shown is a random part of about 18,000 reagents tested. In the full data, about 1,030 (5.7%) were called active. 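Inactive calls also include pools with fewer than 3300 nuclei, whose migration was not assessed.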 The raw values are shown without normalisation. Entries without a mark were called inactive. Further read-outs or replicates are left out here.

- Assay: 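Genome-wide hunt for genes controlling movement of lymphatic endothelial cells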 (primary screen)
- Cell system: human lymphatic endothelial cells
- Reagents: siRNA pool against human genes, 40 nM
- Duration: 48 h after transfection
- Read-out: 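High-content imaging of dye-stained cells in a scratch assay measures filled wound area and nuclei per well; duplicate means given as ratio to mock and robust z-score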
- Reading the numbers: migration robust z-score: higher = faster migration into the scratch; nuclei per well: higher = more cells in the well
- Rule for the call: 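Pools averaging fewer than 3300 nuclei are never called; remaining pools count as changed when migration robust z lies outside -2 to 2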
- Calls: active = migration changed; inactive = no migration change, or too few cells

With knock-down of CCL20 (C-C motif chemokine ligand 20), the screen gave migration robust z-score 0.05; nuclei per well, duplicate mean 5983.
With knock-down of TESK2 (testis associated actin remodelling kinase 2), the record shows migration robust z-score -2; nuclei per well, duplicate mean 3795.
KLHDC10 (kelch domain containing 10) gave migration robust z-score -0.96; nuclei per well, duplicate mean 5194.
Silencing of CETN2 (centrin 2) resulted in: migration robust z-score -0.53; nuclei per well, duplicate mean 5286.
For PPP1R3C (protein phosphatase 1 regulatory subunit 3C) the deposit lists migration robust z-score -0.46; nuclei per well, duplicate mean 5926.
With knock-down of BMERB1 (bMERB domain containing 1), the screen gave migration robust z-score 0.49; nuclei per well, duplicate mean 4744.
With knock-down of DNAAF4 (dynein axonemal assembly factor 4), the screen gave migration robust z-score 0.66; nuclei per well, duplicate mean 4998.
Against PRICKLE2 (prickle planar cell polarity protein 2), the values are migration robust z-score 1.71; nuclei per well, duplicate mean 4668.
Silencing of KCNK15 (potassium two pore domain channel subfamily K member 15) came out at: migration robust z-score 0.1; nuclei per well, duplicate mean 6106.
Silencing of CRACDL (CRACD like) resulted in: migration robust z-score 0.1; nuclei per well, duplicate mean 5312.
PSMB7 (proteasome 20S subunit beta 7) scored migration robust z-score -0.88; nuclei per well, duplicate mean 5912.
With knock-down of ARF5 (ARF GTPase 5), the record shows migration robust z-score 0.2; nuclei per well, duplicate mean 4739.

Quoted from the listing for reference:
DNAAF4 (dynein axonemal assembly factor 4) — migration robust z-score: 0.66; nuclei per well, duplicate mean: 4998
PRICKLE2 (prickle planar cell polarity protein 2) — migration robust z-score: 1.71; nuclei per well, duplicate mean: 4668
